These are yes or no findings as the source states them, for the method shown. Binding seen in cells or lysates may run through a third protein. These calls come from enrichment with a bait or labelling near it, and not all partners need be listed. For some assays here: No binding means not detected with the bait.
Key:
[1] = molecular target: IRSp53‐EGFP (UniProt Q9UQB8); assay: affinity purification with mass spectrometry; whole-cell GFP-trap pull-down of IRSp53-EGFP bait from transfected CAD cells treated with DMSO or 50 μM CK-666 for 1 h; on-bead digestion, LC-MS/MS; hits against cytosolic GFP-expressing cells; five preparations
[2] = molecular target: GFP‐Eps8‐wild type (WT) (mouse (primer names: mEps8)) (UniProt Q08509); assay: affinity purification with mass spectrometry; whole-cell GFP-trap pull-down of GFP-Eps8-WT bait from transfected CAD cells treated with DMSO or 50 μM CK-666 for 1 h; on-bead digestion, LC-MS/MS; hits against cytosolic GFP-expressing cells; three preparations
[3] = molecular target: GFP‐Eps8‐wild type (WT) (mouse (primer names: mEps8)) (UniProt Q08509); assay: condition: only cells treated with 50 μM CK-666 for 1 h; affinity purification with mass spectrometry; as a2, the sample of cells treated with 50 μM CK-666 for 1 h, compared directly with the nontreated (DMSO) sample

By UniProt entry, the sequences of proteins in these tests, tags left out.
UniProt Q9UQB8: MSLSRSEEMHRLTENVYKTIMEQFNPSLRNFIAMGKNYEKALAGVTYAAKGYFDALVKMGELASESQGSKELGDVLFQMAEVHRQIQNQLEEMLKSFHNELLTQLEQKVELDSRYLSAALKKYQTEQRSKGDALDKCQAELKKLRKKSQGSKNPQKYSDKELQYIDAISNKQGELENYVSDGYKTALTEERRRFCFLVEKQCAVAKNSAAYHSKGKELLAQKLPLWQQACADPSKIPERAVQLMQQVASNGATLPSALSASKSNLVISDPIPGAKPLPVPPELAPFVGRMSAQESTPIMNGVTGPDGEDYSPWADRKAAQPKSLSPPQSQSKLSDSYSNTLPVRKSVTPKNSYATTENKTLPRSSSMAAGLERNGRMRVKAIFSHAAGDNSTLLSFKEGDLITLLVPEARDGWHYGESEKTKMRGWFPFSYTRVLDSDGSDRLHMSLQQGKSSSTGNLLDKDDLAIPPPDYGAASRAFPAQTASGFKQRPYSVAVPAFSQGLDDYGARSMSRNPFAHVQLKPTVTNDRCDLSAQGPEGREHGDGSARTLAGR
UniProt P13541: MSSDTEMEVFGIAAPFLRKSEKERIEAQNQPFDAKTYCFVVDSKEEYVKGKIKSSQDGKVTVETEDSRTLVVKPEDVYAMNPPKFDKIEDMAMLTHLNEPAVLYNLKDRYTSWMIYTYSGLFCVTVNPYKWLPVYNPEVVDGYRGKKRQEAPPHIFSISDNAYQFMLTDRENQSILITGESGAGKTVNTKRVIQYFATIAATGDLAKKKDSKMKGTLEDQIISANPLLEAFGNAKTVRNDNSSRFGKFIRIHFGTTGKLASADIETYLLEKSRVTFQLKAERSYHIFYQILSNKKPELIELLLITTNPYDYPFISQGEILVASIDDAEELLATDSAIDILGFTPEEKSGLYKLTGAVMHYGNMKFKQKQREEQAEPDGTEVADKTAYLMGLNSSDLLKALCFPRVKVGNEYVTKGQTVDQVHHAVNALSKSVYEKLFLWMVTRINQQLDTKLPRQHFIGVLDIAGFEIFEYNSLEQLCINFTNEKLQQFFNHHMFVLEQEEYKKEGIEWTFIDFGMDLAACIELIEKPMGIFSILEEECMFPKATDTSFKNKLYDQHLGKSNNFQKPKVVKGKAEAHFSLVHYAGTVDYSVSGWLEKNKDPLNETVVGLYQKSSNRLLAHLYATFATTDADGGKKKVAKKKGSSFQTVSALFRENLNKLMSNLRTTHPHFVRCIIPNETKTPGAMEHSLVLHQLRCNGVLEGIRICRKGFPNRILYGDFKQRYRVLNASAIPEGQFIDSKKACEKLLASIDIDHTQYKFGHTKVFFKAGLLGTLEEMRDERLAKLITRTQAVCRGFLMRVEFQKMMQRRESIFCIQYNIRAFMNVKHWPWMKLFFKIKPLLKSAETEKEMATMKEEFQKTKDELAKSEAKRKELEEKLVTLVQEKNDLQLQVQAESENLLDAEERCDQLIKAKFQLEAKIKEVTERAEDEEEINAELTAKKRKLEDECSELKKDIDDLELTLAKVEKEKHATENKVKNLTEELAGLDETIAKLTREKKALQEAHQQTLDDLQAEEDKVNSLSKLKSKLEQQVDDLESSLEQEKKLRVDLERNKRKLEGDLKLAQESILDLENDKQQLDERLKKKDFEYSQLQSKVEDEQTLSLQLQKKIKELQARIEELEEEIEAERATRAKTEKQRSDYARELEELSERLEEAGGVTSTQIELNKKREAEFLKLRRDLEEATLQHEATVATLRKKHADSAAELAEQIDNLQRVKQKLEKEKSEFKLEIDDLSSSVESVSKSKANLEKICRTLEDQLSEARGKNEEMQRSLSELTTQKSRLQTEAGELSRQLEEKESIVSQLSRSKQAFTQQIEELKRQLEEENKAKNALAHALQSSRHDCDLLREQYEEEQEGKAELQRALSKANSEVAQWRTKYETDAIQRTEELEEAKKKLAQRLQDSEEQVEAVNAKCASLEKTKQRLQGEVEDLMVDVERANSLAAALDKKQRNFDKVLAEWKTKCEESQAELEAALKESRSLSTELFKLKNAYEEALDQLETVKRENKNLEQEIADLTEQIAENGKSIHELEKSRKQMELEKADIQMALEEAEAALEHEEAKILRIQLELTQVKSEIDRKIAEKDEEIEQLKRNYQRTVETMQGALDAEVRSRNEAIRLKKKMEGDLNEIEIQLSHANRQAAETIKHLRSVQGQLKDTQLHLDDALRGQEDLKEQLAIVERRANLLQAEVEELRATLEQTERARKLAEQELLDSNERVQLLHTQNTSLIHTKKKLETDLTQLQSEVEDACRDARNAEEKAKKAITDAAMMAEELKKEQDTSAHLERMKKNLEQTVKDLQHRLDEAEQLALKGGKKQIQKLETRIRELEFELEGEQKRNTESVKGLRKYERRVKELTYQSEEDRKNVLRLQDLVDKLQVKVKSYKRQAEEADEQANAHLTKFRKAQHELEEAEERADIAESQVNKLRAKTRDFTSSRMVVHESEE
UniProt Q64331: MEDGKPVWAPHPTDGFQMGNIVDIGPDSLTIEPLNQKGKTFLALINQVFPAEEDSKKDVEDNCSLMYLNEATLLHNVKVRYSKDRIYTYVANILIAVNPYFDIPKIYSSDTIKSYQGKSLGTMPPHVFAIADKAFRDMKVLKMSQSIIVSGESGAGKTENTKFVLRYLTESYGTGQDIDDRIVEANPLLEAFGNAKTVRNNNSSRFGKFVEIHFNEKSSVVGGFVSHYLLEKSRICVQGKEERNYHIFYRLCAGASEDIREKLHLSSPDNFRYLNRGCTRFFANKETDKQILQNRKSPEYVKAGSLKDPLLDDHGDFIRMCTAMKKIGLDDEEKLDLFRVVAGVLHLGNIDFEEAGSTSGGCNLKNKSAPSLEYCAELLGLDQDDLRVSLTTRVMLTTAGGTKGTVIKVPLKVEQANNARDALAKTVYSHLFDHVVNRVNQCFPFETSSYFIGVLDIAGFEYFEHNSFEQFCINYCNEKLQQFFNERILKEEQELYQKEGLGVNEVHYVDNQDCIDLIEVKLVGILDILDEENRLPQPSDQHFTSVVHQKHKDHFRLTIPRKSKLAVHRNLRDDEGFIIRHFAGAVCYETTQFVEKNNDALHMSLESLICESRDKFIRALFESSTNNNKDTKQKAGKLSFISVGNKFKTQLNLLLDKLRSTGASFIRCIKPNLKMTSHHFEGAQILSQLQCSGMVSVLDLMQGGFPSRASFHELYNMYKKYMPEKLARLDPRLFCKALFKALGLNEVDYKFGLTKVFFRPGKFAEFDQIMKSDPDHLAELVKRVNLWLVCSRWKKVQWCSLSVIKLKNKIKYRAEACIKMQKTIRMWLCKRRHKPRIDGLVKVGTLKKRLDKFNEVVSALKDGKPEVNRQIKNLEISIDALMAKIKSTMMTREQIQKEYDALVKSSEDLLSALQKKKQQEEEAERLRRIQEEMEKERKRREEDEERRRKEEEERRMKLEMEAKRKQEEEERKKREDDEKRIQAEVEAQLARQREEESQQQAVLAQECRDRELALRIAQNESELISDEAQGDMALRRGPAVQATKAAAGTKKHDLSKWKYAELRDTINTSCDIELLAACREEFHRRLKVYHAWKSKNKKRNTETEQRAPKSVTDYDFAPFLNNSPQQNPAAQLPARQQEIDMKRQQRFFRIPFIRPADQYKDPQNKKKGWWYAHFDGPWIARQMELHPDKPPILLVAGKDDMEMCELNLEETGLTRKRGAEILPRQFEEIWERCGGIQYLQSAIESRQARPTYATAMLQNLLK
UniProt O88398: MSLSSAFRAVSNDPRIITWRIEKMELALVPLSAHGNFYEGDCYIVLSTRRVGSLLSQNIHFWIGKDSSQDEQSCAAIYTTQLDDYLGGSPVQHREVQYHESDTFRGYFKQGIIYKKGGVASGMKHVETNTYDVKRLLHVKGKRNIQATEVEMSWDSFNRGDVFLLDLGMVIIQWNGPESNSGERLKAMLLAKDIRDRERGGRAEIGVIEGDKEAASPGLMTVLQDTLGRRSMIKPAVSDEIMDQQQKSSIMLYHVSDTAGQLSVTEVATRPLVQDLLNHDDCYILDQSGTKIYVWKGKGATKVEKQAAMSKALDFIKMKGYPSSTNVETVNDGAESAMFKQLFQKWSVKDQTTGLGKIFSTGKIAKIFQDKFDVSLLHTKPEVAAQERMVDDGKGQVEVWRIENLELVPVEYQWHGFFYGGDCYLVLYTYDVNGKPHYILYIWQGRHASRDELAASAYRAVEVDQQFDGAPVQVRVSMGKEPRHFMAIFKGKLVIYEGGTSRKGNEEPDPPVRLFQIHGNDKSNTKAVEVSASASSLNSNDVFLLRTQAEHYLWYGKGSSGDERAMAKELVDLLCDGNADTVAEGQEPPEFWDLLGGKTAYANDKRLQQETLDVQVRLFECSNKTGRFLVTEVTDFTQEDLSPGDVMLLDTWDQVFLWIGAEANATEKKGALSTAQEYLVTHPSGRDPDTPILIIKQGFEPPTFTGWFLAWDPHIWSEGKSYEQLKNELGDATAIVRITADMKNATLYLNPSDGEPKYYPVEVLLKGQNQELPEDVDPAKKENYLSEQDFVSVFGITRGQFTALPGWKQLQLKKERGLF
UniProt Q9ERG0: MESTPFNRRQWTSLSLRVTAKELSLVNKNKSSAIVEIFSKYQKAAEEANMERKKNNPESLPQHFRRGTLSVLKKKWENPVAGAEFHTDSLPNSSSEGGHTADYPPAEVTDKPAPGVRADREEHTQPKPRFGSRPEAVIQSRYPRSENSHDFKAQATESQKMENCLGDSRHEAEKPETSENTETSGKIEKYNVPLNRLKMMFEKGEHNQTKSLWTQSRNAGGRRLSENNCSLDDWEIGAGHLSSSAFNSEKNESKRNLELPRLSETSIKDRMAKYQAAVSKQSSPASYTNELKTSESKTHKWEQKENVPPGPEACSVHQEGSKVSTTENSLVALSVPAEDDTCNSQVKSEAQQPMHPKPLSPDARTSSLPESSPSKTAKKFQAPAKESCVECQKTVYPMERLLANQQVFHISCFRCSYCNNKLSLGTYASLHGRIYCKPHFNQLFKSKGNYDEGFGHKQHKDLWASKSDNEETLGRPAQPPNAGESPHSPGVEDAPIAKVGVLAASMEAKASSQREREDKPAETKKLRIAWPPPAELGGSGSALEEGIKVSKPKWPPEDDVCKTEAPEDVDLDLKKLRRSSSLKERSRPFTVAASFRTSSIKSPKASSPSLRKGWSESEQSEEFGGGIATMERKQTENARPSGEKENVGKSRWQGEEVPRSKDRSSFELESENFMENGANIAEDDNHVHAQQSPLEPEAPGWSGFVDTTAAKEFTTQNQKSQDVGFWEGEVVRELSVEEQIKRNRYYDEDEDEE
UniProt Q9D898: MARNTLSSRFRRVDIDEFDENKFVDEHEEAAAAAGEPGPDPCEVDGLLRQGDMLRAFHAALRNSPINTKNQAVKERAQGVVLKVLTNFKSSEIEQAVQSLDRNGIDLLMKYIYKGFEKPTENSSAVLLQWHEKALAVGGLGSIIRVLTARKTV
UniProt Q9WTI7: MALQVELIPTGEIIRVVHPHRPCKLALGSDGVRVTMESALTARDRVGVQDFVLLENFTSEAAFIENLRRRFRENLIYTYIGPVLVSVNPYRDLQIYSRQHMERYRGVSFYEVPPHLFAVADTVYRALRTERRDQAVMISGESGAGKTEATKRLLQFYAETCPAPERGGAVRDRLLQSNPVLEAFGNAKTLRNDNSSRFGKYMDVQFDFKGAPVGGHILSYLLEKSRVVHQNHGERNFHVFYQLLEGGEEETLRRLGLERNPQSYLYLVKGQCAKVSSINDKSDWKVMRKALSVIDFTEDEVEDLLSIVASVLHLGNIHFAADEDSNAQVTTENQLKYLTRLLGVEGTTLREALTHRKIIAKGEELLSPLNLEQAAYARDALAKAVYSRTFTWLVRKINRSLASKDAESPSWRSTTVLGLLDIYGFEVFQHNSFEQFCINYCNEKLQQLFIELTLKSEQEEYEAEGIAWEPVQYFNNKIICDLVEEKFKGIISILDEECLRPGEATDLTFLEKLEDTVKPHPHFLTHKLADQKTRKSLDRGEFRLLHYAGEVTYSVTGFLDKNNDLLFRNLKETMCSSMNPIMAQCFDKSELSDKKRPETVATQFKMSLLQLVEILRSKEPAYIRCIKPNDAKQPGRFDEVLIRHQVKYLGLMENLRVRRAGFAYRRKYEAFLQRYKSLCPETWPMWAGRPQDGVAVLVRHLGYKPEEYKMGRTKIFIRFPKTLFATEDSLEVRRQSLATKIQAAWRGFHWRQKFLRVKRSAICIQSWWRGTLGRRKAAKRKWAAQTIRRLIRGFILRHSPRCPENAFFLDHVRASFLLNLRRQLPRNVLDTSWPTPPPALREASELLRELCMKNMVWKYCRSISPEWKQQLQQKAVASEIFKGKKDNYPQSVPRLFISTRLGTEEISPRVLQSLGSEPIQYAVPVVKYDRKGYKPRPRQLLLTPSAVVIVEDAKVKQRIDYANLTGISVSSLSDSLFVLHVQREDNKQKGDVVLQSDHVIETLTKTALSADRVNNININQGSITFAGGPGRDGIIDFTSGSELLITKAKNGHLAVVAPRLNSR

| Substance | binding [1] | binding [2] | binding [3] |
| --- | --- | --- | --- |
| Arpc1b (from UniProt Q9WV32 1-372) | binds | binds | – |
| Myh3 (from UniProt P13541 1-1940) | binds | – | – |
| Myh10 (from UniProt Q61879 1-1976) | – | binds | – |
| Myh11 (from UniProt O08638 1-1972) | – | binds | – |
| Myo6 (from UniProt Q64331 1-1262) | – | binds | – |
| Sptbn5 (from UniProt A0A571BF02 1-3624) | binds | – | – |
| advillin (Avil) (from UniProt O88398 1-819) | – | binds | no binding |
| eplin (Lima 1) (from UniProt Q9ERG0 1-753) | – | binds | – |
| profilin (Pfn1) (from UniProt P62962 1-140) | binds | – | – |

Other lines, results leading:

| binding [1] | binding [2] | binding [3] | Substance |
| --- | --- | --- | --- |
| – | binds | – | Arpc5l (from UniProt Q9D898 1-153) |
| – | binds | – | Cdc42bpa (MRCKα) (from UniProt Q3UU96 1-1719) |
| binds | – | – | Enah (from UniProt Q03173 1-802) |
| – | binds | – | IRSp53 (insulin receptor tyrosine kinase substrate protein of 53 kDa) (from UniProt Q8BKX1 1-535) |
| – | binds | – | Myo1c (from UniProt Q9WTI7 1-1063) |
| – | binds | – | Myo5a (from UniProt Q99104 1-1853) |
| – | binds | – | Myo5b (from UniProt P21271 1-1818) |
| binds | binds | – | gelsolin (Gsn) (from UniProt P13020) |

Reference: article PMC10711657
